Laboratory results: patent US9855285B2, “Method of inhibiting the expression of IL-22 in activated T-cells” (LEO PHARMA A/S, priority 2012, dated 2018)
At least one compound was matched to its structure with a doubt left.

System: human Th1/Th17 cells
Test: In vitro assay using activated human T-cells differentiated into Th1/Th17 cells; cytokines released in the supernatant
Assay type: cell-based
Settings: PDE4 inhibitor 1 μM alone or in combination with calcipotriol 100 nM
Description: CD4+ T cells were first negatively isolated from human peripheral blood of healthy donors using RosetteSep® separation system from STEMCELL.
Subsequently, CD4+ T cells were activated by crosslinking the cell surface proteins CD3 and CD28 with specific antibodies.
To induce Th1/Th17 differentiation, activated CD4+ T cells were then cultured in flasks at density of 2-5×10^6 cells per ml of culture in X-VIVO 15 serum-free medium in presence of growth and differentiation factors cocktail, containing the following: • rhIL-2 at 10 ng/ml • rhTGF-β at 10 ng/ml • rhIL-1β at 10 ng/ml • rhIL-6 at 10 ng/ml • rhIL-23 at 20 ng/ml • Antibody anti-IL-4 at 1 μg/ml • Antibody anti-IL-13 at 1 μg/ml […]
Once the T cells are differentiated into Th1/Th17 cells, cells are rinsed from the differentiation media and placed in assay media (X-VIVO 15 media containing 10 ng/ml rhIL-2 only) at the final concentration of 1-1.5×10^6 cells/ml in wells with 0.250 ml cell suspension per well (0.25-0.375×10^6 cells/well/sample) with and without test compound treatment for 24 hours. At the termination time point, the effect of anti-inflammatory drugs is assessed by measuring the level of phenotype related cytokines released in the cell culture supernatants. […]
Supernatants were collected from all samples and assessed for cytokine expression (IL-6, IL-8, IL-17, IL-22 and TNF-α). […]

## CS(=O)(=O)Nc1ccc2oc3c(OC(F)F)ccc(C(=O)Nc4c(Cl)cncc4Cl)c3c2c1 [Oglemilast]
  expression and secretion of IL-22: comparable efficacy to Compound A
